Our source for the binding values is PMC11449332.

This test addresses T1, TDRKH (endogenous, mouse testis) (mouse (endogenous in mouse testes)) (UniProt Q80VL1).
T1 sequence: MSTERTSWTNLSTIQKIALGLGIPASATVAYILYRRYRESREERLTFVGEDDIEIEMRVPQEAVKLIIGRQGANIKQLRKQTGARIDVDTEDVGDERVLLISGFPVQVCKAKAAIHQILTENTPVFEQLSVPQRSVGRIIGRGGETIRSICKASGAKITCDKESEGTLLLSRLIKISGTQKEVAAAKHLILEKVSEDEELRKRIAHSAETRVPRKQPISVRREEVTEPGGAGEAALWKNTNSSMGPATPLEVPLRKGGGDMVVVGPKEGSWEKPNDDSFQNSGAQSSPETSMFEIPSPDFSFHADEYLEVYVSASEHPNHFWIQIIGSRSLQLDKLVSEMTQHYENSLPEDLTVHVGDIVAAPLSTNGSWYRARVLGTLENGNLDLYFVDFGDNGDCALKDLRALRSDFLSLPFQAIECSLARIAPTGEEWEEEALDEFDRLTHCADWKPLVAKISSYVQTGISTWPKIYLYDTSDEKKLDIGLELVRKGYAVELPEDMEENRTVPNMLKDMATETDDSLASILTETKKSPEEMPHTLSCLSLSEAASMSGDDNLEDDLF
The experiment in a line: affinity purification with mass spectrometry; anti-TDRKH immunoprecipitation from Pnldc1+/- and Pnldc1 E30A/- mouse testis lysates (25 mM Tris-HCl pH 7.4, 150 mM NaCl, 1% Triton X-100), Protein A agarose, RPLC-MS/MS.

Positions count from the first letter of the chain named. Numbers in names are those of the source. Results are given in words; binding and its absence hold for the method and conditions named. Binding seen in cells or lysates may run through a third protein. A yes stands for co-enrichment or nearness to the bait. Other partners may have been found.

B1: PNLDC1 (endogenous, Pnldc1+/- mouse testis) (enzyme, UniProt B2RXZ1 1-531)
chain: MDVGADEFEQSLPLLQELVAGADFVGLDIEFTGLRSNLSRPQQISLFDLPSEWYLKTRQSVQQFTICQIGLSMFSSIEGESNKYVAHSCNFFLFPTTFGILDSEFSFQASSVQFLNQYGFDYNKFLKNGIPYMNEEQEKKIKHSILRGNWRVRSSLDKDQIKVVIDKVTQWLDLAEEGDQMTLPGIAGFQAFEVQLVLRQALPNIWTVLKEEWVIVKKVSQPQRWYLEHASCDQVSCWKEQILLSARGFSVFFQMLVKAQKPLVGHNMMMDLLHLHEKFFRPLPESYDQFKQNIHSLFPVLIDTKNVTKDIWKELRFPRVSNLLEVYEVLSSNLNPTKDSGPVIIHARQCKKYAETKCPHEAAYDAFLCGSVLLKVAHLLLQRVHGNGAVHEPAFPQYLDVLAPYVNQVNLIRAGVPKINFSGPDYPSIRPPVLILTVKRWPGVSEQQVYREFQNLCKFDVRRFTRSQFLLLTNKFKDARSVLKEYRNHPTLQVSLYRSWRHSPNITCLLQVCSIVTTWAMIAFLLGRPMP
Regarding B1, the binding result is “binds”.

B2: PNLDC1 E30A (endogenous, Pnldc1 E30A/- mouse testis) (enzyme, UniProt B2RXZ1 1-531)
chain: B1 chain with E30A
In the case of B2, the binding entry is “binds”.
